Experimental data published in the supplement of paper PMC12067093, “Discovery and optimisation of a covalent ligand for TRIM25 and its application to targeted protein ubiquitination” (Chemical Science, 2025).
The list shows a part of the results.

Chains of the proteins cited; added tags and fusions are not shown. Lines headed by an entry give the natural chain unless they say otherwise; changes in a name come on top.
UniProt Q12906, whole entry, looked up: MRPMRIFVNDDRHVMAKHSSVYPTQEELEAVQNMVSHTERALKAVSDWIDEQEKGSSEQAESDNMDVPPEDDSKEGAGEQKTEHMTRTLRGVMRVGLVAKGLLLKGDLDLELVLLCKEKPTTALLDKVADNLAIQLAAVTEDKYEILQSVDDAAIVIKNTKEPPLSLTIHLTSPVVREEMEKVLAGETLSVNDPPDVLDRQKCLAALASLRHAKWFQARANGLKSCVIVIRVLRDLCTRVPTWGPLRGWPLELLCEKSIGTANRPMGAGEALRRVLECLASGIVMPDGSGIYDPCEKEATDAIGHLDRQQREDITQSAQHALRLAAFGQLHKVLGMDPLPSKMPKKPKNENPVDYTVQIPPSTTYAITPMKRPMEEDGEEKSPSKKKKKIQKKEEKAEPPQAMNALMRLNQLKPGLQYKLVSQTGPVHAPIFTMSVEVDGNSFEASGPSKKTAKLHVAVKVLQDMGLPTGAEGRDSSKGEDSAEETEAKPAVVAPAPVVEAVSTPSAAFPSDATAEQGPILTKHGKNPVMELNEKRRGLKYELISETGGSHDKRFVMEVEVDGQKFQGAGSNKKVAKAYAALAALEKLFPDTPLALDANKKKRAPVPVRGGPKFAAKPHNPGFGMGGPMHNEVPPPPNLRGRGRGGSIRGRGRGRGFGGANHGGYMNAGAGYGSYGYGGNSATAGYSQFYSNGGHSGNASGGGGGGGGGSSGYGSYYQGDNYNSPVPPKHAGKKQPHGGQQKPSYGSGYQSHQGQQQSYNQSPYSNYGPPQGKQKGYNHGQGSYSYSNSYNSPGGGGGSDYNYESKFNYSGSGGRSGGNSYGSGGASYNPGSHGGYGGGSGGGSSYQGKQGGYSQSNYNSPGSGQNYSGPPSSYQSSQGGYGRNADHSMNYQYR
UniProt Q9NSE4: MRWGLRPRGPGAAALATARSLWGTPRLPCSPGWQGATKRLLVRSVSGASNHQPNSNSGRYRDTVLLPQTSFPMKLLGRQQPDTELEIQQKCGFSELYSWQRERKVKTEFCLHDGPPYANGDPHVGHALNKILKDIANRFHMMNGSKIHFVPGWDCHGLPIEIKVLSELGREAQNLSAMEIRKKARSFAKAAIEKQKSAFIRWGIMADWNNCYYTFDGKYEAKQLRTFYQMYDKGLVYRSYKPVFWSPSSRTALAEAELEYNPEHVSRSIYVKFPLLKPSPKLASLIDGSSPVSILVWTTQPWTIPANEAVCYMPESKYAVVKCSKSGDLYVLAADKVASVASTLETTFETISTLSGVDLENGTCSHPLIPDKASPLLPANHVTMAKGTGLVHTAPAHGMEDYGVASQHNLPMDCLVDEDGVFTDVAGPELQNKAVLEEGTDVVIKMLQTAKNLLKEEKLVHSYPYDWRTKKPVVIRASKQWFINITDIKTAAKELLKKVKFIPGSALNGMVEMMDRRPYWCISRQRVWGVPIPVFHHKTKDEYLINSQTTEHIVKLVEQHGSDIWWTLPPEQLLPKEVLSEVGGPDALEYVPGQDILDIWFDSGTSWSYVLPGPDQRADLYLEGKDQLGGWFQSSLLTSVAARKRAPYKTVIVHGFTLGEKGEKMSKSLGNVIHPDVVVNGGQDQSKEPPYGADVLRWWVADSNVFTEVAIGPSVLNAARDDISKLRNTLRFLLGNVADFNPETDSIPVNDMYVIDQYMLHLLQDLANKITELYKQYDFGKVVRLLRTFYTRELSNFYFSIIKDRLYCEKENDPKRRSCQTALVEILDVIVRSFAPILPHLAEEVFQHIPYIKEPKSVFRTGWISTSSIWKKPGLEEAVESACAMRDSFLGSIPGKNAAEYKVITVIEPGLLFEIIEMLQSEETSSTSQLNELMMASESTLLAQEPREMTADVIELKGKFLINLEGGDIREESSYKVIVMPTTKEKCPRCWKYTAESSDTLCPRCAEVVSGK
UniProt P22692: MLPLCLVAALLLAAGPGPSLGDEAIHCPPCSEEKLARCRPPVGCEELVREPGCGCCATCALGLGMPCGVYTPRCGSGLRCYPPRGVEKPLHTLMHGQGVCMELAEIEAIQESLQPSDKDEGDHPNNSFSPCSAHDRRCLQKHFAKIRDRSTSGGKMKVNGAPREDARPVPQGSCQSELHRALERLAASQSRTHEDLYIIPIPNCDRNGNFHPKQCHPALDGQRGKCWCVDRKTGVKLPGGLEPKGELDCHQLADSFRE
UniProt Q5T013: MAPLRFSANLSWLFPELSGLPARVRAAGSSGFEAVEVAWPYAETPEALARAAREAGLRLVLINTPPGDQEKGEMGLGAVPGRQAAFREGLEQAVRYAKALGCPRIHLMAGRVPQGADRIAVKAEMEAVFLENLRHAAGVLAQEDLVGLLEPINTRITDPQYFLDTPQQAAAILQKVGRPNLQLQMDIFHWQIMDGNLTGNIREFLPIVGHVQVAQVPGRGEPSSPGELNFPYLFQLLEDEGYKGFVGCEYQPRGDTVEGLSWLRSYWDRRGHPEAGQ
UniProt Q8WYA0: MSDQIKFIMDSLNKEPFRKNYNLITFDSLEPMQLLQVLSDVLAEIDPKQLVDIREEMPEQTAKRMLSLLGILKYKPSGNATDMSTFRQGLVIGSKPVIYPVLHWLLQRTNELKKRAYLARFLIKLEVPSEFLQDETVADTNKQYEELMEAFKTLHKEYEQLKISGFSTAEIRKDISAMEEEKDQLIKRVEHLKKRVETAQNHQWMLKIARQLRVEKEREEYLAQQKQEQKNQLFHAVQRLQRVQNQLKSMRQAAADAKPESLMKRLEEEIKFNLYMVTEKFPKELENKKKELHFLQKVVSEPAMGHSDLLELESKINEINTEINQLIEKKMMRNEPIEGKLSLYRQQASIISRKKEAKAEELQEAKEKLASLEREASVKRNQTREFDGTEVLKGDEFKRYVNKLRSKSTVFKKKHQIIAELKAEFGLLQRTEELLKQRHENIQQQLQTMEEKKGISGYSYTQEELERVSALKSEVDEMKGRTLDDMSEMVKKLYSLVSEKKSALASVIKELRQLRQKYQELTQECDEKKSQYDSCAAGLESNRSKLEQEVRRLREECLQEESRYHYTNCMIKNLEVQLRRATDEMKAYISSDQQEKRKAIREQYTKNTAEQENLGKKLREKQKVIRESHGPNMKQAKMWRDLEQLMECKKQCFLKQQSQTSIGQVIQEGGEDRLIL
UniProt Q13422: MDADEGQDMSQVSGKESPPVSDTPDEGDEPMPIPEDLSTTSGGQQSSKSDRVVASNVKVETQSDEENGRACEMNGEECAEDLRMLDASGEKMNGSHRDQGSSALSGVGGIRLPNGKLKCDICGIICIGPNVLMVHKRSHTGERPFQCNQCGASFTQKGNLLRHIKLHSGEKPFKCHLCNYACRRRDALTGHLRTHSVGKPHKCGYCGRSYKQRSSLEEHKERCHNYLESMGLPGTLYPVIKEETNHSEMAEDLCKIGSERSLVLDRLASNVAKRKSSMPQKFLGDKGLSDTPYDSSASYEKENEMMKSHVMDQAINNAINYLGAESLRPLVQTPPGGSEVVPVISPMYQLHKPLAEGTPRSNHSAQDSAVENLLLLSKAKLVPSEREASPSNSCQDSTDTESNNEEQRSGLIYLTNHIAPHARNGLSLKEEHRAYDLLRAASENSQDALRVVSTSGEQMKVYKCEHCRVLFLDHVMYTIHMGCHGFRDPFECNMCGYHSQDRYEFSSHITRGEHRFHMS
UniProt Q9H0C8: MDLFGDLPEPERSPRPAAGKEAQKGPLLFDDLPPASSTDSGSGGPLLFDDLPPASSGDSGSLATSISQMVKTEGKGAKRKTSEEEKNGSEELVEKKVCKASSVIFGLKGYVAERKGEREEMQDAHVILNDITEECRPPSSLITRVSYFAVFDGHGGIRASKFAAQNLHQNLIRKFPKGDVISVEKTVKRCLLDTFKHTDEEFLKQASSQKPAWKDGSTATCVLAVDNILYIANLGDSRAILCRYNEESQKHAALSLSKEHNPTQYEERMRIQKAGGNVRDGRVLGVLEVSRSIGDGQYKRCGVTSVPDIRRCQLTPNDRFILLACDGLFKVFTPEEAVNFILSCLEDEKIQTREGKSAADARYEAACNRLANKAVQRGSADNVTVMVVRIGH
UniProt Q9Y6M1: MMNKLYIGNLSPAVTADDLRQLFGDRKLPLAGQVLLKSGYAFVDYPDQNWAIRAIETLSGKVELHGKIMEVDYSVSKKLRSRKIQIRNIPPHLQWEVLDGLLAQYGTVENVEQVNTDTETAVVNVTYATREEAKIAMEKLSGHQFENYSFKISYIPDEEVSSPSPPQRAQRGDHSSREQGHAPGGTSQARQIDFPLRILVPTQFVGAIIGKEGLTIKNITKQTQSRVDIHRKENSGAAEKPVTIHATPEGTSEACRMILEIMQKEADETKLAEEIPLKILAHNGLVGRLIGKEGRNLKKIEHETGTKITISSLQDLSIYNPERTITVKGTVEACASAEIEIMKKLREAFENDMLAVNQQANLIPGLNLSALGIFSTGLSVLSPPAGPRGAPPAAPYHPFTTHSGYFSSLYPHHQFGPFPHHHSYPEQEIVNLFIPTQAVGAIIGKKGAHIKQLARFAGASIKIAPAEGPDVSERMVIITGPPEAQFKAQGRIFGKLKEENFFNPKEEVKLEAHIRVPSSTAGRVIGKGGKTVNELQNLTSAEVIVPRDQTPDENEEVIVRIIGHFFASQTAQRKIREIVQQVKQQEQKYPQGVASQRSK
UniProt P41252: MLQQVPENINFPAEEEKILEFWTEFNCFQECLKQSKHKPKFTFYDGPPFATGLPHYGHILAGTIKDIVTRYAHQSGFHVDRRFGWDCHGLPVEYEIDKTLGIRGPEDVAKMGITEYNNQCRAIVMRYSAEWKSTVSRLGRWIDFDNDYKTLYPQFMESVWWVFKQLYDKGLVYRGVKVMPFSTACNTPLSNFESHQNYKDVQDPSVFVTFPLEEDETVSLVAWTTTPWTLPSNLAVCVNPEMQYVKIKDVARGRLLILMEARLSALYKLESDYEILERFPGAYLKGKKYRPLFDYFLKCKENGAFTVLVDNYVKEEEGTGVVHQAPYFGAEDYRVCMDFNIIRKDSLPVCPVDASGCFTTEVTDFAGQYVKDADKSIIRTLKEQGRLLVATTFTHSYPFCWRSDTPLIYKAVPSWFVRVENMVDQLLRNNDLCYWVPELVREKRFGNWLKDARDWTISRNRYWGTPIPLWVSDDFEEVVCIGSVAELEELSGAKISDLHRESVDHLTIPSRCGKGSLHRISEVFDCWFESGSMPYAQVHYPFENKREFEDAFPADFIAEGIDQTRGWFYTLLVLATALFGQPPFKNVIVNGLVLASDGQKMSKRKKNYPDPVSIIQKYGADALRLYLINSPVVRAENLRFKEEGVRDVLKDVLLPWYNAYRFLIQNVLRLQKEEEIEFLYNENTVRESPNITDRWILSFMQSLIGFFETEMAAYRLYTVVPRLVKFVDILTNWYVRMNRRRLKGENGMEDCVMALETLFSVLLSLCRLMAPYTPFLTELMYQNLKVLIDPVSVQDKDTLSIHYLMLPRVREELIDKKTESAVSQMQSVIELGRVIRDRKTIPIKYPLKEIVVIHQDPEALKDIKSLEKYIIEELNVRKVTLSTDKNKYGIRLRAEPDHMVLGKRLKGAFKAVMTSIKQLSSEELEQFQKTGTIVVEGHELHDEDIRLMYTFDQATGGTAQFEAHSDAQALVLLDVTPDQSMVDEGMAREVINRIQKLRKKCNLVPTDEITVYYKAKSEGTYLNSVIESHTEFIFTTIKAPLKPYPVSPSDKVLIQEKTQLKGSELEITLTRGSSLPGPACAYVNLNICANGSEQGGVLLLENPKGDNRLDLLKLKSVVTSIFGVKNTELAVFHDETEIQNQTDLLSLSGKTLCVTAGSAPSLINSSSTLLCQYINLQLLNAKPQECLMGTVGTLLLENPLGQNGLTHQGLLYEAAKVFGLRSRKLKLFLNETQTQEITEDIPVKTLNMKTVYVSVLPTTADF
UniProt P29218: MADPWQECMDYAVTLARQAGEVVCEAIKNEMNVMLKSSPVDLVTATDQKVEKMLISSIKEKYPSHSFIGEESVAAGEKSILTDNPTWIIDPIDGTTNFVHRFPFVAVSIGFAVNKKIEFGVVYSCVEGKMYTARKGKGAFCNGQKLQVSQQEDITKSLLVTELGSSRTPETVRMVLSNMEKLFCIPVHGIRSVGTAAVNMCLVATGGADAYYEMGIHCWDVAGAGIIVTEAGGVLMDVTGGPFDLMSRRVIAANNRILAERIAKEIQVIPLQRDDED
UniProt P51553: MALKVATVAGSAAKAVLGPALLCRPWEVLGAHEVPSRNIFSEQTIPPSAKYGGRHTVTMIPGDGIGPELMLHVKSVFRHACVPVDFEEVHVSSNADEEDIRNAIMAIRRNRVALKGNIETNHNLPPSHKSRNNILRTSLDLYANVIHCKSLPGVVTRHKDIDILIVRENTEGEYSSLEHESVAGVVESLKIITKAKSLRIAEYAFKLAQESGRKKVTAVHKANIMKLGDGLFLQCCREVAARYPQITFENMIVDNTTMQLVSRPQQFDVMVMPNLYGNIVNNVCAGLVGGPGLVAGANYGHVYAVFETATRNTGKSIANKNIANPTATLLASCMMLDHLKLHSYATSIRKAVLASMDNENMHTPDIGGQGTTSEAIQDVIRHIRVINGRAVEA

The targets below were run with Cc1cc(ccc1-c1ccccc1)C(=O)N1CCCN(CC1)C(=O)CCl [compound 10] (assay: probe-labelled cysteine peptide fold change vs DMSO (competition) (log2 fold change); higher = less target engagement (more negative = stronger competition)). Conditions: 10 µM; THP-1; incubation time: 4 h.
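Further: competitive profiling in live THP-1 cells: cysteine peptides tagged with an iodoacetamide desthiobiotin (IA-DTB) probe, intensity after compound treatment relative to DMSO-treated cells.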

| Target | probe-labelled cysteine peptide fold change |
| --- | --- |
| ILF3_Q12906_295_VLECLASGIVMPDGSGIYDPCEK (UniProt Q12906) | 0.0645 |
| HUWE1_Q7Z6Z7_183_ENGFGLAECCR (UniProt Q7Z6Z7) | -0.226 |
| IL4I1_Q96RQ9_252_AHSCLSDR (UniProt Q96RQ9) | 0.145 |
| IARS2_Q9NSE4_521_RPYWCISR (UniProt Q9NSE4) | -0.0125 |
| IFRD2_Q12894_147_EYVDCLTDK (UniProt Q12894) | 0.0555 |
| IL6R_P08887_25_CPAQEVAR (UniProt P08887) | -0.299 |
| IGFBP4_P22692_249_GELDCHQLADSFRE (UniProt P22692) | -0.63 |
| HYI_Q5T013_248_GFVGCEYQPR (UniProt Q5T013) | -0.0639 |
| INPP5B_P32019_990_AQEFIHQFLCNPL (UniProt P32019) | -0.214 |
| IFT81_Q8WYA0_569_YHYTNCMIK (UniProt Q8WYA0) | 0.0851 |
| HUWE1_Q7Z6Z7_624_GLQSFVQCQPFER (UniProt Q7Z6Z7) | -0.128 |
| IKZF1_Q13422_182_CHLCNYACR (UniProt Q13422) | 0.0087 |
| ILKAP_Q9H0C8_221_DGSTATCVLAVDNILYIANLGDSR (UniProt Q9H0C8) | -0.167 |
| INPP5D_Q92835_4_MVPCWNHGNITR (UniProt Q92835) | -0.162 |
| IGF2BP2_Q9Y6M1_255_PVTIHATPEGTSEACR (UniProt Q9Y6M1) | 0.175 |
| INPP5D_Q92835_506_ISHICTDNVK (UniProt Q92835) | 0.0703 |
| IKZF1_Q13422_254_EETNHSEMAEDLCK (UniProt Q13422) | -0.107 |
| IARS_P41252_336_EEEGTGVVHQAPYFGAEDYRVCMDFNIIR (UniProt P41252) | -0.214 |
| IKBKG_Q9Y6K9_54_CLEENQELR (UniProt Q9Y6K9) | 0.0646 |

| Target | probe-labelled cysteine peptide fold change |
| --- | --- |
| IDH3A_P50213_351_CSDFTEEICR (UniProt P50213) | -0.172 |
| IKBKG_Q9Y6K9_131_CQQQMAEDK (UniProt Q9Y6K9) | 0.0477 |
| INPP4A_Q96PE3_540_SLECIIQR (UniProt Q96PE3) | -0.0753 |
| ILK_Q13418_42_LWLDNTENDLNQGDDHGFSPLHWACR (UniProt Q13418) | -0.0585 |
| INPP1_P49441_10_ELLCVSEK (UniProt P49441) | -0.0523 |
| IMPDH1_P20839_215_GKLPIVNDCDELVAIIAR (UniProt P20839) | 0.00979 |
| IMPA1_P29218_8_ADPWQECMDYAVTLAR (UniProt P29218) | 0.0287 |
| IGF2R_P11717_1042_FVCNDDVYSGPLK (UniProt P11717) | -0.0769 |
| IKBKG_Q9Y6K9_76_CEELLHFQASQR (UniProt Q9Y6K9) | 0.143 |
| HUWE1_Q7Z6Z7_19_KTPTEAPADCR (UniProt Q7Z6Z7) | -0.335 |
| IMPA1_P29218_24_QAGEVVCEAIK (UniProt P29218) | 0.188 |
| IGF2R_P11717_893_IHLVCSR (UniProt P11717) | -0.249 |
| IFT80_Q9P2H3_210_VDWNSVNDLILSAGEDCK (UniProt Q9P2H3) | 0.173 |
| IARS_P41252_120_MGITEYNNQCR (UniProt P41252) | 0.2 |
| ILVBL_A1L0T0_173_GALQAVDQLSLFRPLCK (UniProt A1L0T0) | 0.0544 |
| ILK_Q13418_239_DFNEECPR (UniProt Q13418) | -0.027 |
| IFT122_Q9HBG6_14_AEHCINDIAFKPDGTQLILAAGSR (UniProt Q9HBG6) | 0.0363 |
| IDH3G_P51553_148_TSLDLYANVIHCK (UniProt P51553) | 0.0372 |
| HUWE1_Q7Z6Z7_699_YICQKPSIQK (UniProt Q7Z6Z7) | -0.306 |

Same assay, conditions: 50 µM; THP-1; incubation time: 4 h

| Target | probe-labelled cysteine peptide fold change |
| --- | --- |
| ILF3_Q12906_295_VLECLASGIVMPDGSGIYDPCEK (UniProt Q12906) | 0.125 |
| HUWE1_Q7Z6Z7_183_ENGFGLAECCR (UniProt Q7Z6Z7) | -0.485 |
| IL4I1_Q96RQ9_252_AHSCLSDR (UniProt Q96RQ9) | 0.314 |
| IARS2_Q9NSE4_521_RPYWCISR (UniProt Q9NSE4) | 0.346 |
| IFRD2_Q12894_147_EYVDCLTDK (UniProt Q12894) | 0.0894 |
| IL6R_P08887_25_CPAQEVAR (UniProt P08887) | -0.583 |
| IGFBP4_P22692_249_GELDCHQLADSFRE (UniProt P22692) | -0.381 |
| HYI_Q5T013_248_GFVGCEYQPR (UniProt Q5T013) | 0.13 |
| INPP5B_P32019_990_AQEFIHQFLCNPL (UniProt P32019) | -0.711 |
| IFT81_Q8WYA0_569_YHYTNCMIK (UniProt Q8WYA0) | -0.0457 |
| HUWE1_Q7Z6Z7_624_GLQSFVQCQPFER (UniProt Q7Z6Z7) | 0.121 |
| IKZF1_Q13422_182_CHLCNYACR (UniProt Q13422) | 0.111 |
| ILKAP_Q9H0C8_221_DGSTATCVLAVDNILYIANLGDSR (UniProt Q9H0C8) | -0.322 |
| INPP5D_Q92835_4_MVPCWNHGNITR (UniProt Q92835) | -0.453 |
| IGF2BP2_Q9Y6M1_255_PVTIHATPEGTSEACR (UniProt Q9Y6M1) | 0.236 |
| INPP5D_Q92835_506_ISHICTDNVK (UniProt Q92835) | 0.132 |
| IKZF1_Q13422_254_EETNHSEMAEDLCK (UniProt Q13422) | -0.0837 |
| IARS_P41252_336_EEEGTGVVHQAPYFGAEDYRVCMDFNIIR (UniProt P41252) | -0.192 |
| IKBKG_Q9Y6K9_54_CLEENQELR (UniProt Q9Y6K9) | -0.046 |

| Target | probe-labelled cysteine peptide fold change |
| --- | --- |
| IDH3A_P50213_351_CSDFTEEICR (UniProt P50213) | 0.135 |
| IKBKG_Q9Y6K9_131_CQQQMAEDK (UniProt Q9Y6K9) | -0.388 |
| INPP4A_Q96PE3_540_SLECIIQR (UniProt Q96PE3) | -0.119 |
| ILK_Q13418_42_LWLDNTENDLNQGDDHGFSPLHWACR (UniProt Q13418) | -0.0498 |
| INPP1_P49441_10_ELLCVSEK (UniProt P49441) | -0.242 |
| IMPDH1_P20839_215_GKLPIVNDCDELVAIIAR (UniProt P20839) | -0.0553 |
| IMPA1_P29218_8_ADPWQECMDYAVTLAR (UniProt P29218) | -0.0866 |
| IGF2R_P11717_1042_FVCNDDVYSGPLK (UniProt P11717) | -0.139 |
| IKBKG_Q9Y6K9_76_CEELLHFQASQR (UniProt Q9Y6K9) | 0.372 |
| HUWE1_Q7Z6Z7_19_KTPTEAPADCR (UniProt Q7Z6Z7) | -0.0272 |
| IMPA1_P29218_24_QAGEVVCEAIK (UniProt P29218) | 0.181 |
| IGF2R_P11717_893_IHLVCSR (UniProt P11717) | -0.0882 |
| IFT80_Q9P2H3_210_VDWNSVNDLILSAGEDCK (UniProt Q9P2H3) | 0.663 |
| IARS_P41252_120_MGITEYNNQCR (UniProt P41252) | -0.0453 |
| ILVBL_A1L0T0_173_GALQAVDQLSLFRPLCK (UniProt A1L0T0) | -0.275 |
| ILK_Q13418_239_DFNEECPR (UniProt Q13418) | -0.159 |
| IFT122_Q9HBG6_14_AEHCINDIAFKPDGTQLILAAGSR (UniProt Q9HBG6) | -0.131 |
| IDH3G_P51553_148_TSLDLYANVIHCK (UniProt P51553) | -0.0281 |
| HUWE1_Q7Z6Z7_699_YICQKPSIQK (UniProt Q7Z6Z7) | -0.513 |
